Measurements published in PubChem BioAssay AID2685 (National Center for Advancing Translational Sciences (NCATS), 2010).
The other results are listed elsewhere or left out. The main result of the screen is listed elsewhere. These columns were measured beside it and carry no call. Most of these compounds were active or inconclusive in the main read-out, so they are no random draw. The note in brackets gives the kind of curve behind each potency; many fits are weak.

Assay: qHTS Assay for Lipid Storage Modulators in Drosophila S3 Cells;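 on cell number change: cells counted by Cell Tracker Red CMTPX staining in the red channel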
Settings: BODIPY lipid droplet fluorescence, 18-24 h; for cell number change: measured here: cell count max response, cells fed with added oleic acid
Method in brief: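 Drosophila S3 cells got compounds at several concentrations plus oleic acid (400 uM solution). Laser-scanning cytometry with 488 nm excitation read lipid droplets at 500-530 nm and cells at 575-640 nm. Percent activity was relative to 20 uM Triacsin C.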

[1] = measured here: cell number channel AC50, cells fed with added oleic acid
[2] = measured here: lipid fluorescence (Fed channel) AC50, cells fed with added oleic acid

CN(Cc1ccco1)S(=O)(=O)c1cc(F)ccc1CN1C(=O)c2cccnc2C1=O
cell number change: -7.03%

Cn1ncc2c(Nc3ccc(Cl)c(Cl)c3)ncnc21
cell number change: -17.8%

Cc1ccc(-n2nnnc2SCc2ccccn2)cc1C
cell number change: 43.9% | AC50 [1]: 1.84 µM [rising, full curve, poor fit]

CCOC(=O)c1cccc(OCC(O)CNCCOc2ccccc2F)c1 (stereo not drawn)
cell number change: 7.08% | AC50 [2]: 7.31 µM [rising, single point]

NC(=O)N=Nc1c(O)[nH]c2c(Br)cc(Br)cc12
AC50 [2]: 6.51 µM [rising, single point]

CC(OC(=O)/C=C/c1cccc(F)c1)C(=O)NC1CCCCC1C (stereo not drawn)
cell number change: 37.8% | AC50 [1]: 29.1 µM [rising, single point]

CCSc1nc2ccccc2c(=O)n1CCc1ccc(OC)c(OC)c1
cell number change: 0.486% | AC50 [2]: 0.0326 µM [rising, partial curve, poor fit]

COCCCn1c(SCC(=O)n2c(C)c(C)c3ccccc32)nnc1-c1ccoc1C
cell number change: -35.2% | AC50 [1]: 0.00651 µM [falling, full curve, poor fit]

CSCCC(NC(N)=O)C(=O)Nc1cccc(S(=O)(=O)N2CCOCC2)c1 (stereo not drawn)
cell number change: 117%

O=S(=O)(NCC1CCCO1)c1ccc(Oc2ccccc2)cc1 (stereo not drawn)
cell number change: -23.1% | AC50 [2]: 32.6 µM [falling, single point]

Cc1cccc(NC(=O)Nc2cccc(Oc3c(F)c(F)c(F)c(F)c3F)c2)c1
cell number change: -34.8% | AC50 [1]: 13 µM [falling, partial curve, poor fit] | AC50 [2]: 29.1 µM [falling, single point]

O=C1c2ccccc2C(=O)N1CCN1CCOCC1
cell number change: 3.24%

CC1CCN(C(=O)c2ccc(NC(=O)C3CCCO3)cc2)CC1 (stereo not drawn)
cell number change: 147% | AC50 [1]: 20.6 µM [rising, partial curve] | AC50 [2]: 29.1 µM [rising, single point]

O=C(N/N=C/c1ccc2c(c1)OCO2)c1ccc(Cn2cc([N+](=O)[O-])cn2)o1
cell number change: 37.9% | AC50 [1]: 13 µM [rising, partial curve, poor fit] | AC50 [2]: 0.00461 µM [rising, full curve, poor fit]

COc1ccccc1CNC(=O)COC(=O)C1CC1
cell number change: 22.5% | AC50 [2]: 0.651 µM [rising, single point]

CCOC(=O)c1c(C)n(C)c2ccc(OC(C)C(=O)OC)cc12 (stereo not drawn)
cell number change: 0.405%

Nc1cc(N)nc(SCC(=O)NNC(=O)c2ccc(Cl)cc2)n1
cell number change: 34.3%

Cc1cc(F)ccc1NC(=O)C1CCN(S(=O)(=O)c2ccc3c(c2)CCCC(=O)N3)CC1
cell number change: 13% | AC50 [2]: 29.1 µM [rising, single point]

CCOc1ccccc1N1CCN(C(=O)[C@@H]2CCCN2C2=NS(=O)(=O)c3ccccc32)CC1
cell number change: -6.64% | AC50 [2]: 0.731 µM [falling, full curve, poor fit]

COc1cc(/C=C(\C#N)C(=O)NCC2CCCO2)ccc1OC(C)C (stereo not drawn)
cell number change: -5.75%

CC(C)(C)NC(=O)CN(Cc1ccc(F)cc1)C(=O)Cn1nnc(-c2ccc(F)cc2)n1
cell number change: -29%

CC1=C(C(=O)OC(C)C)C(c2cccc(F)c2)N2C(=O)C(C)SC2=N1 (stereo not drawn)
AC50 [1]: 0.291 µM [rising, full curve]

CS(=O)(=O)c1ccc2nnn(OCC(=O)Nc3ccc(Br)cc3Br)c2c1
cell number change: 44.9%

c1ccc(-c2ccccc2OCCCCn2ccnc2)cc1
cell number change: -38.6% | AC50 [1]: 8.2 µM [falling, partial curve, poor fit]

N#CC1(NC(=O)COC(=O)c2ccc(-c3ccc(O)cc3)cc2)CCCCC1
cell number change: -43.4% | AC50 [1]: 18.4 µM [falling, single point]

CC1CCCN(C(=O)CSc2nc3ccccc3o2)C1 (stereo not drawn)
cell number change: 28% | AC50 [2]: 2.06 µM [falling, partial curve, poor fit]

c1ccc(-c2ccnc3nc(-n4cccc4)nn23)cc1
cell number change: 3.87%

Cc1ccsc1C(=O)N(C)C1CCS(=O)(=O)C1 (stereo not drawn)
cell number change: -21.4% | AC50 [2]: 0.651 µM [rising, full curve]

COc1ccc(/C=N/NC(=O)C(C)N(c2ccc(OC)cc2)S(C)(=O)=O)cc1 (stereo not drawn)
AC50 [1]: 0.116 µM [falling, full curve, poor fit]

NS(=O)(=O)c1cccc(NC(=O)COC(=O)C2CCCCC2)c1
cell number change: -19.8% | AC50 [1]: 0.00517 µM [falling, full curve, poor fit]

CCN(CC)C(=O)C12CC3CC(CC(Br)(C3)C1)C2
cell number change: 8.6% | AC50 [1]: 7.31 µM [falling, partial curve, poor fit] | AC50 [2]: 6.51 µM [falling, single point]

O=C(Nc1cccc(C(F)(F)F)c1)C1CCN(S(=O)(=O)c2ccc(N3CCCC3=O)cc2)CC1
cell number change: -32.9% | AC50 [1]: 1.84 µM [falling, full curve, poor fit] | AC50 [2]: 25.9 µM [falling, single point]

COc1ccc2c(c1OC)c(=O)n1c3ccc(OC(C)C(=O)NCCCN4CCOCC4)cc3c3ccnc2c31 (stereo not drawn)
cell number change: 6.63% | AC50 [2]: 3.26 µM [falling, single point]

Cc1nc2c(-c3ccc(Cl)cc3)cnn2c2c1CCC2
cell number change: 3.52% | AC50 [1]: 0.13 µM [falling, full curve, poor fit]

O=C(CCC1COc2ccccc2O1)NCc1ccco1 (stereo not drawn)
cell number change: 6.41% | AC50 [2]: 3.26 µM [falling, single point]

Cc1ccc(NC(=O)CN2CCC(C(=O)c3ccc4c(c3)OCCO4)CC2)cc1
cell number change: 77% | AC50 [1]: 29.1 µM [rising, single point] | AC50 [2]: 6.51 µM [falling, single point]

Cc1ccc(N(C(=O)CNC(=O)c2ccco2)C(C(=O)NC2CCCC2)c2cccnc2)cc1F (stereo not drawn)
cell number change: 44.2% | AC50 [1]: 32.6 µM [rising, partial curve, poor fit]

NC(=O)c1nsc(C(=O)N(c2cccc(F)c2)C(C(=O)NCC2CCCO2)c2ccc3ncccc3c2)c1N (stereo not drawn)
cell number change: -1.39% | AC50 [2]: 6.51 µM [falling, single point]

CC(C)CN(C(=O)CSc1ccc2c(c1)OCCO2)c1c(N)n(CC(C)C)c(=O)[nH]c1=O
cell number change: 9.23% | AC50 [2]: 29.1 µM [rising, single point]

COc1ccc(C(C)=O)cc1CSc1nc(C)cc(C)n1
cell number change: 6.21%

O=C(NCc1cccnc1)C1c2ccccc2C(=O)N1C1CCCC1 (stereo not drawn)
cell number change: -36.2% | AC50 [1]: 4.61 µM [falling, partial curve, poor fit] | AC50 [2]: 29.1 µM [falling, single point]

Cc1ccc(NC(=O)CN(C)C(=O)c2cc(-c3ccccc3)nn2-c2ccccc2)cc1
cell number change: 157% | AC50 [1]: 18.4 µM [rising, partial curve]

CCOC(=O)Nc1nc(C)c(C(=O)c2ccc(Cl)cc2)s1
cell number change: -26.5%

Clc1ccccn1
cell number change: 5.37% | AC50 [1]: 0.651 µM [falling, single point] | AC50 [2]: 0.651 µM [falling, single point]

CCCCOc1ccc(N=Cc2cccs2)cc1
cell number change: 109% | AC50 [1]: 29.1 µM [rising, single point]

Cc1ccc(C(=O)Nc2sc3c(c2C(=O)O)CCCCC3)o1
cell number change: -38.8% | AC50 [1]: 32.6 µM [falling, partial curve, poor fit] | AC50 [2]: 6.51 µM [falling, full curve]

O=C(CC1CCCCC1)NCc1ccc(Cl)cc1
cell number change: -25.2% | AC50 [2]: 14.6 µM [falling, partial curve]

O=C(NCc1ccccn1)C1CCC(=O)N(Cc2ccc(Cl)cc2)C1 (stereo not drawn)
cell number change: -12.4%

Cn1c(SCC(=O)Nc2ccc(Cl)cn2)nnc1C1CC1
cell number change: 1.14% | AC50 [1]: 0.58 µM [rising, single point]

CC1=NN(C(C#N)c2ccccc2C)C(c2ccccc2)C1 (stereo not drawn)
cell number change: -6.42%

Cc1n[nH]c(=O)c2c(NC(=O)CSc3ccc(Br)cc3)oc(C)c12
AC50 [1]: 6.51 µM [falling, single point] | AC50 [2]: 6.51 µM [falling, single point]

COc1ccc(COC(=O)C2=C(C)NC(=O)NC2c2cc(Br)c(O)c(OC)c2)cc1 (stereo not drawn)
cell number change: -17.1%

O=C(CSc1nnc(CNC(=O)c2ccccc2F)o1)NC1CCCCC1
cell number change: 29.7% | AC50 [1]: 0.259 µM [rising, full curve, poor fit]

COc1cc2ccccc2cc1C(=O)N1CCN(C(C)=O)CC1
cell number change: -11% | AC50 [2]: 23.1 µM [falling, single point]

CCCCCC(=O)Nc1ccc(-c2nnc3n2CCCCC3)cc1
cell number change: 44.3% | AC50 [1]: 7.31 µM [rising, partial curve]

c1ccc(OCc2nnc3n2CCCCC3)cc1
cell number change: 30.3% | AC50 [1]: 20.6 µM [rising, single point] | AC50 [2]: 18.4 µM [rising, single point]

Cc1ccccc1CS(=O)(=O)c1cnc2ccccc2n1
cell number change: 10.9% | AC50 [2]: 1.64 µM [falling, partial curve, poor fit]

COC(=O)c1ccc(NC(=O)COC(=O)c2nc3nccc(C)n3n2)cc1
cell number change: -19.3% | AC50 [2]: 23.1 µM [falling, single point]

CCCCn1c(SCC(=O)NC(=O)NCc2ccco2)nc2cc(S(N)(=O)=O)ccc21
cell number change: 40.4% | AC50 [1]: 1.3 µM [rising, full curve, poor fit] | AC50 [2]: 29.1 µM [rising, single point]

COc1ccc2[nH]cc(/C=N/NS(=O)(=O)c3ccc(C)cc3)c2c1
cell number change: -35.5% | AC50 [1]: 29.1 µM [falling, single point] | AC50 [2]: 18.4 µM [falling, single point]

CCCc1[nH]nc2c1C(c1ccc(OC)cc1OC)C(C#N)=C(N)O2 (stereo not drawn)
AC50 [2]: 0.651 µM [falling, full curve, poor fit]

CCOC(=O)N1CCC2(CC1)CC(=O)c1c(ccc3oc(C(=O)O)c(C)c13)O2
cell number change: -93.8% | AC50 [1]: 29.1 µM [falling, single point] | AC50 [2]: 29.1 µM [falling, single point]
